Measurements taken from article doi:10.1101/2020.12.14.422803.

molecular target: ImuA (M. xanthus), yeast two-hybrid fusion (Myxococcus xanthus DK1622); test: two-hybrid

| Binder | binding |
| --- | --- |
| RecR (M. xanthus), yeast two-hybrid fusion (protein, UniProt Q1DAZ9 1-197) MTPDPLNRLVAQLAKLPGIGEKTAQRLAFHILRAPGEYAAELSQAIREVKEKVHLCVRCFSLTDAETCNFCRDARRDERVLCVVETFADLMALERTREFKGRYHVLHGVLSPLEGVGPDQLRIRELLERLNDSRVEELILATNPDVEGEATALYLTRLLKPMGLRVTRIAQGLPMGGDLEFADQATLAKALSARRDL | no binding |
| RecO (M. xanthus), yeast two-hybrid fusion (protein, UniProt Q1D7T4 1-244) MERYDDDALVLSSVDYGESDRLVTLLTREHGKLTAFAAGARKSKRRFAGALEPFMRLRVHIVETRGSTVRLDGTDIVAGFYAAREDLSLIARALYAVELCRELTRDHEPQPELFALLESYLTRLDAKEAGPTSLLAFELSALAHAGLMPRFDSCSLCGGAPGERPRFDQAHGGAVCEPCGVRARESVAVPVALLSGLRALQEGARTPLPPELRARARGLLNVFIAHHLGRRLKSVDFMAQVGLD | no binding |
| RecF (M. xanthus), yeast two-hybrid fusion (protein, UniProt Q1DFP6 1-380) MRLLALHVHDFRNLPQVQLTPSAHATIAVGQNGQGKTNLLEALYFLATLKPLRAGRLSELVRWGSQGARVTGRFLLKGAEREIAVEVGGGTRQAFVDGKKASSLEDYFGGVSVVAFTPDDLEVVKGGPDSRRGFLDRAVFNRFPAFLRESREYARALKNRNRLLREGHTVDAVYLEAYDETLAKAGARIYSRRRALMAELAPRAQATFASIGRTVDPAVYNYRPAHLEGDFAAADETALAAMLRESLSARLRRDMERGFTSVGPHSDDVSVTLGGRSARAYASQGQQRALVLGWKIAEIENLEAAMGFLPLLLLDDVSSELDPERNAYLMGYLAQSGAQVVLTTTDGSLVRGAAADDTLWLDVHGGQVAVRADAEPPPAN | no binding |
| LexA (M. xanthus), yeast two-hybrid fusion (protein, UniProt Q1D406 1-222) MEELTERQREILSFIVKETETRGFPPTIREIGEHMDIRSTNGVNDHLKALERKGYLNRGEQQSRSLVATKRARLLLGLGARKDSGMVEIPLLGKVAAGAPLLAQENMEDSVKIDSFLLGGVNGREVFALRVKGQSMIDDGIHDGDYLFVKKTPSAQPGEIVVALIEDEATVKRYYPEGDRIRFQPANATMQPIYVSRAEFRSTMILGQVVGVYRKLQGGRTP | no binding |

Results are given in words; binding and its absence hold for the method and conditions named. Sequences can lack the tags named with a protein.
